By UniProt entry, the sequences of proteins in these tests, tags left out.
UniProt E2JF22: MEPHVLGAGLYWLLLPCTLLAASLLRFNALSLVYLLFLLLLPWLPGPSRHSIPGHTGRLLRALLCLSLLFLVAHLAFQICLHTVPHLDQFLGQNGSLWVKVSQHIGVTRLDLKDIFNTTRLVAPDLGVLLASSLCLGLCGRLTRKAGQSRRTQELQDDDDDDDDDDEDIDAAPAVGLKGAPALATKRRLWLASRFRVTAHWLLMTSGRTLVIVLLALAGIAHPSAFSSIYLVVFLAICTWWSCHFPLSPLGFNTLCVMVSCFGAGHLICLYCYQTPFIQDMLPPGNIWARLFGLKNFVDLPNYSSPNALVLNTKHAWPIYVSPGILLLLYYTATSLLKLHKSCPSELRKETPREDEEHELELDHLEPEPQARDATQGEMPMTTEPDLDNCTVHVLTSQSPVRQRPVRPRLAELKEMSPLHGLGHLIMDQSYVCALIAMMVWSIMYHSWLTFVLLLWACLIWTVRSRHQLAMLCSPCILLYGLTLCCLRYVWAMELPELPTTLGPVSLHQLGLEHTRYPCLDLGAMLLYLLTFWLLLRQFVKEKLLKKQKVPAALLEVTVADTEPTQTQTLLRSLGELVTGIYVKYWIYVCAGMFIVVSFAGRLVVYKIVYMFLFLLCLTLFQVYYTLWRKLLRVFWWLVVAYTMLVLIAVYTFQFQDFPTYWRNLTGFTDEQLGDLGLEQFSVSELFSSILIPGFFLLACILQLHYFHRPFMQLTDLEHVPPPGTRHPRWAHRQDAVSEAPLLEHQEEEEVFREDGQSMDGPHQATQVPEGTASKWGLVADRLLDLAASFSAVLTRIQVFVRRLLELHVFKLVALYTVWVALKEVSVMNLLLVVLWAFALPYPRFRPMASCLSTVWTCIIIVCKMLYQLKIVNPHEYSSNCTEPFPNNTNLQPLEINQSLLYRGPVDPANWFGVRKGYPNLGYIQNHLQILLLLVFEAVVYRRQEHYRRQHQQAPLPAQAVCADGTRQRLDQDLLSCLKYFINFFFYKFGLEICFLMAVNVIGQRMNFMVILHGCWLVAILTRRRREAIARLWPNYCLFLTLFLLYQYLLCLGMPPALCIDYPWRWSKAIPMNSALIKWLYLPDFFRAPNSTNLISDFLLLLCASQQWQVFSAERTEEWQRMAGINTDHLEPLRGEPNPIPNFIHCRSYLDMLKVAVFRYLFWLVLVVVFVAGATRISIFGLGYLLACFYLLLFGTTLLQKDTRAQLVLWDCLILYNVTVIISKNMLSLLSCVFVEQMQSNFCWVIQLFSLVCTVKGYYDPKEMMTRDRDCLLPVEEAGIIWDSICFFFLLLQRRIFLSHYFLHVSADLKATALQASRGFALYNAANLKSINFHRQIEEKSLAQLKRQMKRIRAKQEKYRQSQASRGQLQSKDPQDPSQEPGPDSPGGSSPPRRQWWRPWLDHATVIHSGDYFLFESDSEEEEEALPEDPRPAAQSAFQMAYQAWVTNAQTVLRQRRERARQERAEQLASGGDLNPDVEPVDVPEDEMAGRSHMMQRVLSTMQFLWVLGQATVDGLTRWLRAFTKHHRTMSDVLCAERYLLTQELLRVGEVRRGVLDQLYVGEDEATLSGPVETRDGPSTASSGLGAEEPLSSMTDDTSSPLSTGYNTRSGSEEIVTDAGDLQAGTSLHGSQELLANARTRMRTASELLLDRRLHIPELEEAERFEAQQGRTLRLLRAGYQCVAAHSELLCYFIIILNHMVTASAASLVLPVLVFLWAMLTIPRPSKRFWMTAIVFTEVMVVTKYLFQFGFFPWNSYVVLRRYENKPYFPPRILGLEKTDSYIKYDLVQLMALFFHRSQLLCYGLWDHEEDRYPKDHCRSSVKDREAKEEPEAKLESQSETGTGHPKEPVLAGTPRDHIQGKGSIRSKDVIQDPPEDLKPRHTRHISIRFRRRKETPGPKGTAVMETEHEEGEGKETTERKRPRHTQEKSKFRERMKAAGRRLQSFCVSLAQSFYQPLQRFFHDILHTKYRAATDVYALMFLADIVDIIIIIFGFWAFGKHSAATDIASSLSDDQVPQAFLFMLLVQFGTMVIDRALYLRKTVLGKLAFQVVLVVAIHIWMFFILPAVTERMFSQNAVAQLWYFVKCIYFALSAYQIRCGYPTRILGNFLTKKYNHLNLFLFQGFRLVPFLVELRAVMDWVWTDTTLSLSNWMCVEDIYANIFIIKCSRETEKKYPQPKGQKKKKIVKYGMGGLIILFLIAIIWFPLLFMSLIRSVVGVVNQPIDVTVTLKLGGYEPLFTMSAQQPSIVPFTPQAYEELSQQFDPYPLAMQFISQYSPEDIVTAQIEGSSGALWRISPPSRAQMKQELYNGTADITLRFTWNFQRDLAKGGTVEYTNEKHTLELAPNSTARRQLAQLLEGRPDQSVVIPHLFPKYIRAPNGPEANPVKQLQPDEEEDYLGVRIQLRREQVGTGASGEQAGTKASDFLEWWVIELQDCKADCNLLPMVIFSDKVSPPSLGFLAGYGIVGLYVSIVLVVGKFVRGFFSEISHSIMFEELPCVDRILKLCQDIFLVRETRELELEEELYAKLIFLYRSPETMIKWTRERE
UniProt O55143: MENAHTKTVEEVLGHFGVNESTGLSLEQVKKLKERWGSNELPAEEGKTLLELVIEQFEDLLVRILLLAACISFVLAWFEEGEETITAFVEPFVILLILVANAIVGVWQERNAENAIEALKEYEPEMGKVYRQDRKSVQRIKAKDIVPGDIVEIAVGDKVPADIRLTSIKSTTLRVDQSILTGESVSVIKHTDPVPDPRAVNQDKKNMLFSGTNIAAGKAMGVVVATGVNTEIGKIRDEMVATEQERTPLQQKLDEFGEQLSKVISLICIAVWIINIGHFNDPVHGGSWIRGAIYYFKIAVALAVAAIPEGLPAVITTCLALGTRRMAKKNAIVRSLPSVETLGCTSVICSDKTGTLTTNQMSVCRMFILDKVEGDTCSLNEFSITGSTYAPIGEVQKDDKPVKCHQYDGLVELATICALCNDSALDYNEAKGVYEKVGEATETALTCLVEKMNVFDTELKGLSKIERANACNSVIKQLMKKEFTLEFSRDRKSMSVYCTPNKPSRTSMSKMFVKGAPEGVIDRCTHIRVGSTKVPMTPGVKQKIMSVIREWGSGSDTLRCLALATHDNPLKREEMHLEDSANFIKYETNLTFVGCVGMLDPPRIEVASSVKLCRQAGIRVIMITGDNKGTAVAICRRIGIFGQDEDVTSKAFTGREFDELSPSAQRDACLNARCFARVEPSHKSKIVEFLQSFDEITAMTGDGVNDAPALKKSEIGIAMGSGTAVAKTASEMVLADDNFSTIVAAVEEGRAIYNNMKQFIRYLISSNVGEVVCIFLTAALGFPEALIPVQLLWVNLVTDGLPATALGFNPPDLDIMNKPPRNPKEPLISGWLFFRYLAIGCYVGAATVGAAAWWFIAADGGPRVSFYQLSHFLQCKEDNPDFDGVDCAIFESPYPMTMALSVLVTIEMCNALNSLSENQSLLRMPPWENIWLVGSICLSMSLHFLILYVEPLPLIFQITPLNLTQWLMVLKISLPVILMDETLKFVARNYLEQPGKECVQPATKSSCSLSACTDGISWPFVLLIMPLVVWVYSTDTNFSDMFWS

In article PMC5702604:

Biological target: Piezo1-GST fusion protein (mouse Piezo1) (mouse) (UniProt E2JF22)
Experiment: affinity purification with mass spectrometry; GST or Piezo1-GST associated glutathione beads from transfected HEK293T cells incubated with C2C12 cell lysates; SDS-PAGE, silver staining, bands excised for mass spectrometry; only the target purified

binding: binds
Substance: endogenously expressed SERCA2 in C2C12 cells (from UniProt O55143 1-1044)

These are yes or no findings as the source states them, for the method shown. In cells and extracts the contact can be indirect. Here binding means that the protein was enriched with, or labelled near, the bait; the list need not be complete.
